Data on three substances can be found in publication PMC8576121.

These are yes or no findings as the source states them, for the method shown. In cells and extracts the contact can be indirect. A yes stands for co-enrichment or nearness to the bait. Other partners may have been found. No binding means not detected with the bait.

Assay in all cases: affinity purification with mass spectrometry; N-His6 bait overproduced in H. volcanii; cytoplasmic extract on nickel chelating sepharose at room temperature in 2.1 M NaCl, 20 mM HEPES, 20 mM imidazole; four washes with 30 mM imidazole, elution with 700 mM imidazole; no RNase step, no cross-linking; co-isolated proteins identified by LC-MS/MS; three biological replicates; proteins found in the empty-vector or DHFR controls removed

The target of assay [1] is T1, ribose-1,5-bisphosphate isomerase (proposed new name aIF2Bα) (Haloferax volcanii) (UniProt D4GV73).
T1 sequence: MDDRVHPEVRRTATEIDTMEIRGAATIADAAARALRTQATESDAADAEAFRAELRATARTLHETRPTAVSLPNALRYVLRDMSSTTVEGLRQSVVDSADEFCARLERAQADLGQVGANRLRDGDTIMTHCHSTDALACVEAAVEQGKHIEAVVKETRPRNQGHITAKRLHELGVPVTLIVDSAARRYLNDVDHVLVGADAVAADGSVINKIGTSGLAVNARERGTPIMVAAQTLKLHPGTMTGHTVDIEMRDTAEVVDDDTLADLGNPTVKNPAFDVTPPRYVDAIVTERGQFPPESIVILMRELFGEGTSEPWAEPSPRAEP

For assay [2], the target named is T2, DNA-directed RNA polymerase subunit Rpo1N (Haloferax volcanii) (UniProt D4GZX6).
T2 sequence: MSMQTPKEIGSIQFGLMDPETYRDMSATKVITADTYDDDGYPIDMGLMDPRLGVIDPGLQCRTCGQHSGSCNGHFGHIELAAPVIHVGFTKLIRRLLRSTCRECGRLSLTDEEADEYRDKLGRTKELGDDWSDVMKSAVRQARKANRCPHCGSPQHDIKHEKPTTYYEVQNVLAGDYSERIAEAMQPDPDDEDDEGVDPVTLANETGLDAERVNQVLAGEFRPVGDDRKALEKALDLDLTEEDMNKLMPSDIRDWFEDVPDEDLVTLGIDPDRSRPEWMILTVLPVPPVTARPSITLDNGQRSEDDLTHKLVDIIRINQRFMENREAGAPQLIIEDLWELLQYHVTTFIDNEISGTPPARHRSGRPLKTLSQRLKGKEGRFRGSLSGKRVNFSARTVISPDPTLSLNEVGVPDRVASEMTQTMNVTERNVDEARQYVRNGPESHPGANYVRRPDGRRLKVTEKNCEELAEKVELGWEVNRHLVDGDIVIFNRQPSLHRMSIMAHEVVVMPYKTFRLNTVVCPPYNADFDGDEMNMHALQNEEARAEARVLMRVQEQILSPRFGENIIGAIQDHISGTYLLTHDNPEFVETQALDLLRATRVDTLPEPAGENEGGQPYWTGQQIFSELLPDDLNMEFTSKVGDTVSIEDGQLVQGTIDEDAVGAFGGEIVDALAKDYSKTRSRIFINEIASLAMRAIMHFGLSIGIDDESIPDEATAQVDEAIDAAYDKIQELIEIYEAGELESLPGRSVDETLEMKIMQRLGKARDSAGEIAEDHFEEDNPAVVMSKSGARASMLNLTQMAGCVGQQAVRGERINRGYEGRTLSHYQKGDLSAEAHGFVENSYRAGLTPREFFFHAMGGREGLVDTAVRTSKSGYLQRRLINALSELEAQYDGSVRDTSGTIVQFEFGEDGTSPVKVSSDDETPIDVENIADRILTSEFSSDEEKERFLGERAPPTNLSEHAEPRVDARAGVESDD

Assay [3] addresses T3, DNA-directed RNA polymerase subunit Rpo5 (Haloferax volcanii) (UniProt D4GZX3).
T3 sequence: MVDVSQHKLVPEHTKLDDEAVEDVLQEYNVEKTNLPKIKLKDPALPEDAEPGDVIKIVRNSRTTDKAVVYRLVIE

The target of assay [4] is T4, DNA-directed RNA polymerase subunit Rpo11 (Haloferax volcanii) (UniProt D4GVL8).
T4 sequence: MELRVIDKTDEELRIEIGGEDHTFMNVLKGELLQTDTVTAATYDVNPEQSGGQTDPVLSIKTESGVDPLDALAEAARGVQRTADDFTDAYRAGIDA

Assay [5] concerns the target T5, DNA-directed RNA polymerase subunit Rpo1C (Haloferax volcanii) (UniProt D4GZX7).
T5 sequence: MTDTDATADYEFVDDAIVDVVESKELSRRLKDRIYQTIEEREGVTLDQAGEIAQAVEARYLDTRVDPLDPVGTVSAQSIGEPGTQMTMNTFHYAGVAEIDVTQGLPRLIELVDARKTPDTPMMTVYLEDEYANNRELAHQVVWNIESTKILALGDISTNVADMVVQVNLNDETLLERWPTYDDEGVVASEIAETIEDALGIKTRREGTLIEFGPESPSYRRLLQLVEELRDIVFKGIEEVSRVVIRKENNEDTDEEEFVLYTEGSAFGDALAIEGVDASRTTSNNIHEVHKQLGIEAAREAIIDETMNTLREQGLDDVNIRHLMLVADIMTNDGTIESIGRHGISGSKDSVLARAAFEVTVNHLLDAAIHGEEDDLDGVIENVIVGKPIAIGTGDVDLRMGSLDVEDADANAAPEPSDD

In assay [6] the target is T6, DNA-directed RNA polymerase subunit Rpo2N (Haloferax volcanii) (UniProt D4GZX4).
T6 sequence: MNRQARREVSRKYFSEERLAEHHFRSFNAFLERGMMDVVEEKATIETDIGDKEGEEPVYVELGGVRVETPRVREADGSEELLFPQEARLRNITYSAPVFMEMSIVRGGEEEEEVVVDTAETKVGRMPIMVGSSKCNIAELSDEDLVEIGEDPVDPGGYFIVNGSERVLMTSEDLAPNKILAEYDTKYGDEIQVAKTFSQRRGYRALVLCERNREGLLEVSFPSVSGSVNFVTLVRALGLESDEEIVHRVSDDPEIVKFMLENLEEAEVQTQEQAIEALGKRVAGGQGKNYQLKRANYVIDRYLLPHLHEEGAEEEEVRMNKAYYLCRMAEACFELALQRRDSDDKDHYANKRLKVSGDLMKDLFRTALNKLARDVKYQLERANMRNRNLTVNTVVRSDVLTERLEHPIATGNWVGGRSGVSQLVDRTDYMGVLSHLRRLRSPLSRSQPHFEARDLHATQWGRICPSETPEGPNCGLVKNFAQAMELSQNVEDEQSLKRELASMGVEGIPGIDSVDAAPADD

Assay [7] deals with T7, DNA-directed RNA polymerase subunit Rpo3 (Haloferax volcanii) (UniProt D4GWY4).
T7 sequence: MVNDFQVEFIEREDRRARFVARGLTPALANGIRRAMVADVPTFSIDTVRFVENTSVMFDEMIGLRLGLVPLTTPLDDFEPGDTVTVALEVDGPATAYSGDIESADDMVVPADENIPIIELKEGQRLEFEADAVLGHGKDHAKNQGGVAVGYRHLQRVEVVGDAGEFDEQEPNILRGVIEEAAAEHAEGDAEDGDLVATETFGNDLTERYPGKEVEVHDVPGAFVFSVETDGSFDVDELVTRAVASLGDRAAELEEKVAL

With “ribulose-1,5-bisphosphate carboxylase/oxygenase (HVO_0970) (enzyme)”, the binding result in assay [1] is listed as “no binding”.

For AMP phosphorylase (HVO_0965) (enzyme), the binding result in assay [1] is reported as “no binding”.

Turning to RNA polymerase auxiliary subunit RpoE, the binding result in assay [2], in assay [3], in assay [4], in assay [5], in assay [6] and in assay [7] was “no binding” throughout.
